Source: the supplement of paper PMC7661543
± gives the standard deviation of the averaged measurements. The effect of the compound repeats well; differences between the knockouts mostly do not.

Tested on: BT-20
Test: relative cell number vs DMSO control (72 h) (% of DMSO); higher = less growth inhibition (more cells)
Procedure: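 QMAP-Seq: a pool of 5 breast cancer cell lines (ZR-75-1, SKBR3, HCC-38, MDA-MB-231, BT-20), each carrying 12 doxycycline-inducible Cas9 sgRNA perturbations (11 knockouts plus non-targeting sgNT), was treated with compounds for 72 h at four 10-fold doses (10 nM-10 uM or 1 nM-1 uM range). Barcodes were amplified and sequenced, and cell number was interpolated from 293T spike-in standard curves. The result is expressed as % of the median of DMSO wells. Two biological replicates.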

[1] = sgRNA knockout: sgATF3, 1000 nM
[2] = sgRNA knockout: sgATF3, 10000 nM
[3] = sgRNA knockout: sgATF4, 1000 nM
[4] = sgRNA knockout: sgATF4, 10000 nM
[5] = sgRNA knockout: sgATF6, 1000 nM
[6] = sgRNA knockout: sgATF6, 10000 nM
[7] = sgRNA knockout: sgATG7, 1000 nM
[8] = sgRNA knockout: sgATG7, 10000 nM
[9] = sgRNA knockout: sgERN1, 1000 nM
[10] = sgRNA knockout: sgERN1, 10000 nM
[11] = sgRNA knockout: sgHSF1, 1000 nM
[12] = sgRNA knockout: sgHSF1, 10000 nM
[13] = sgRNA knockout: sgHSF2, 1000 nM
[14] = sgRNA knockout: sgHSF2, 10000 nM
[15] = sgRNA knockout: sgKEAP1, 100 nM
[16] = sgRNA knockout: sgKEAP1, 1000 nM
[17] = sgRNA knockout: sgKEAP1, 10000 nM
[18] = sgRNA knockout: sgNFE2L2, 10 nM
[19] = sgRNA knockout: sgNFE2L2, 100 nM
[20] = sgRNA knockout: sgNFE2L2, 1000 nM
[21] = sgRNA knockout: sgNFE2L2, 10000 nM
[22] = sgRNA knockout: sgSLC35F2, 10 nM
[23] = sgRNA knockout: sgSLC35F2, 100 nM
[24] = sgRNA knockout: sgSLC35F2, 1000 nM
[25] = sgRNA knockout: sgSLC35F2, 10000 nM
[26] = sgRNA knockout: sgXBP1, 1000 nM
[27] = sgRNA knockout: sgXBP1, 10000 nM

`Cc1ccc(C(=O)Cn2c3c(sc2=N)CCCC3)cc1` [PifithrinAlpha] showed a relative cell number (sgRNA knockout: sgATF3, 10 nM) of 101 ± 17, a relative cell number (sgRNA knockout: sgATF3, 100 nM) of 111 ± 1.6 and a relative cell number [1] of 86.4 ± 9.1. For the same compound, the relative cell number [2] was 89.1 ± 8.5, the relative cell number (sgRNA knockout: sgATF4, 10 nM) was 103 ± 19 and the relative cell number (sgRNA knockout: sgATF4, 100 nM) was 116 ± 16. It also gave a relative cell number [3] of 110 ± 20, a relative cell number [4] of 86.3 ± 7.8 and a relative cell number (sgRNA knockout: sgATF6, 10 nM) of 97.7 ± 3.6. The relative cell number (sgRNA knockout: sgATF6, 100 nM) was 100 ± 22, the relative cell number [5] was 101 ± 22 and the relative cell number [6] was 83.4 ± 17. It also gave a relative cell number (sgRNA knockout: sgATG7, 10 nM) of 105 ± 8.7, a relative cell number (sgRNA knockout: sgATG7, 100 nM) of 94.2 ± 2.5 and a relative cell number [7] of 107 ± 18. For the same compound, the relative cell number [8] was 82.6 ± 13, the relative cell number (sgRNA knockout: sgERN1, 10 nM) was 92.3 ± 6.2 and the relative cell number (sgRNA knockout: sgERN1, 100 nM) was 105 ± 13. The relative cell number [9] was 110 ± 5, the relative cell number [10] was 83.5 ± 1 and the relative cell number (sgRNA knockout: sgHSF1, 10 nM) was 94.3 ± 7.9. The relative cell number (sgRNA knockout: sgHSF1, 100 nM) was 96.2 ± 3.1, the relative cell number [11] was 94.3 ± 6.1 and the relative cell number [12] was 86.9 ± 9.9. For the same compound, the relative cell number (sgRNA knockout: sgHSF2, 10 nM) was 108 ± 3.6, the relative cell number (sgRNA knockout: sgHSF2, 100 nM) was 94 ± 6.6 and the relative cell number [13] was 89.1 ± 0.62. For the same compound, the relative cell number [14] was 75 ± 9.6, the relative cell number (sgRNA knockout: sgKEAP1, 10 nM) was 91.2 ± 5.7 and the relative cell number [15] was 89.8 ± 1.2. The relative cell number [16] was 97.7 ± 7.5, the relative cell number [17] was 84.39 ± 0.27 and the relative cell number [18] was 108 ± 19. For the same compound, the relative cell number [19] was 85.9 ± 18, the relative cell number [20] was 101 ± 11 and the relative cell number [21] was 86.4 ± 7.2. The relative cell number [22] was 119 ± 14, the relative cell number [23] was 104 ± 16 and the relative cell number [24] was 112 ± 27. For the same compound, the relative cell number [25] was 79.4 ± 8.9, the relative cell number (sgRNA knockout: sgXBP1, 10 nM) was 108.1 ± 0.13 and the relative cell number (sgRNA knockout: sgXBP1, 100 nM) was 102 ± 8.7. For the same compound, the relative cell number [26] was 114 ± 19 and the relative cell number [27] was 87.5 ± 15.
`COC(=O)/C=C/C(=O)OC` [DimethylFumarate] was tested, and the relative cell number (sgRNA knockout: sgATF3, 10 nM) was 91.8 ± 15, the relative cell number (sgRNA knockout: sgATF3, 100 nM) was 84.2 ± 5.9 and the relative cell number [1] was 90.3 ± 22. The relative cell number [2] was 92.8 ± 13, the relative cell number (sgRNA knockout: sgATF4, 10 nM) was 111 ± 12 and the relative cell number (sgRNA knockout: sgATF4, 100 nM) was 93.8 ± 16. For the same compound, the relative cell number [3] was 102 ± 12, the relative cell number [4] was 95.56 ± 0.92 and the relative cell number (sgRNA knockout: sgATF6, 10 nM) was 108 ± 24. It also gave a relative cell number (sgRNA knockout: sgATF6, 100 nM) of 88.3 ± 24, a relative cell number [5] of 105 ± 5.3 and a relative cell number [6] of 92.4 ± 10. It also gave a relative cell number (sgRNA knockout: sgATG7, 10 nM) of 96.1 ± 22, a relative cell number (sgRNA knockout: sgATG7, 100 nM) of 95.9 ± 19 and a relative cell number [7] of 99.1 ± 22. For the same compound, the relative cell number [8] was 100 ± 25, the relative cell number (sgRNA knockout: sgERN1, 10 nM) was 101 ± 16 and the relative cell number (sgRNA knockout: sgERN1, 100 nM) was 88.8 ± 4.7. For the same compound, the relative cell number [9] was 100 ± 30, the relative cell number [10] was 107 ± 22 and the relative cell number (sgRNA knockout: sgHSF1, 10 nM) was 97.2 ± 8.9. It also gave a relative cell number (sgRNA knockout: sgHSF1, 100 nM) of 98.2 ± 21, a relative cell number [11] of 92.1 ± 16 and a relative cell number [12] of 93.5 ± 15. The relative cell number (sgRNA knockout: sgHSF2, 10 nM) was 99.1 ± 12, the relative cell number (sgRNA knockout: sgHSF2, 100 nM) was 92.3 ± 3.5 and the relative cell number [13] was 95.8 ± 32. It also gave a relative cell number [14] of 102 ± 27, a relative cell number (sgRNA knockout: sgKEAP1, 10 nM) of 102 ± 4.5 and a relative cell number [15] of 92.4 ± 7. It also gave a relative cell number [16] of 105 ± 1.2, a relative cell number [17] of 92 ± 1.8 and a relative cell number [18] of 112 ± 2. The relative cell number [19] was 92.6 ± 10, the relative cell number [20] was 109 ± 6.8 and the relative cell number [21] was 103 ± 2.5. The relative cell number [22] was 99.8 ± 21, the relative cell number [23] was 107 ± 15 and the relative cell number [24] was 101 ± 16. For the same compound, the relative cell number [25] was 90.1 ± 4.5, the relative cell number (sgRNA knockout: sgXBP1, 10 nM) was 103 ± 5.8 and the relative cell number (sgRNA knockout: sgXBP1, 100 nM) was 86.9 ± 17. It also gave a relative cell number [26] of 100 ± 26 and a relative cell number [27] of 102 ± 17.
Compound `CC(C)n1cnc2c(NCCc3ccc(O)cc3)nc(-c3csc4ccccc34)nc21` [StemRegenin1] has a relative cell number (sgRNA knockout: sgATF3, 10 nM) of 99.1 ± 2.4, a relative cell number (sgRNA knockout: sgATF3, 100 nM) of 113 ± 6.7 and a relative cell number [1] of 94.7 ± 14. For the same compound, the relative cell number [2] was 63.8 ± 11, the relative cell number (sgRNA knockout: sgATF4, 10 nM) was 98.1 ± 13 and the relative cell number (sgRNA knockout: sgATF4, 100 nM) was 120 ± 8. The relative cell number [3] was 106 ± 5.6, the relative cell number [4] was 72.5 ± 8.9 and the relative cell number (sgRNA knockout: sgATF6, 10 nM) was 93.3 ± 32. It also gave a relative cell number (sgRNA knockout: sgATF6, 100 nM) of 110.9 ± 0.32, a relative cell number [5] of 101 ± 14 and a relative cell number [6] of 64 ± 4.5. It also gave a relative cell number (sgRNA knockout: sgATG7, 10 nM) of 101 ± 4.9, a relative cell number (sgRNA knockout: sgATG7, 100 nM) of 109 ± 14 and a relative cell number [7] of 107 ± 11. For the same compound, the relative cell number [8] was 73.2 ± 19, the relative cell number (sgRNA knockout: sgERN1, 10 nM) was 89.2 ± 13 and the relative cell number (sgRNA knockout: sgERN1, 100 nM) was 111 ± 5.8. For the same compound, the relative cell number [9] was 110 ± 2.9, the relative cell number [10] was 72.7 ± 2.6 and the relative cell number (sgRNA knockout: sgHSF1, 10 nM) was 87.5 ± 7.7. It also gave a relative cell number (sgRNA knockout: sgHSF1, 100 nM) of 99.3 ± 8, a relative cell number [11] of 106 ± 15 and a relative cell number [12] of 64.8 ± 10. It also gave a relative cell number (sgRNA knockout: sgHSF2, 10 nM) of 102 ± 16, a relative cell number (sgRNA knockout: sgHSF2, 100 nM) of 113 ± 6.5 and a relative cell number [13] of 92.1 ± 7.3. It also gave a relative cell number [14] of 54.1 ± 25, a relative cell number (sgRNA knockout: sgKEAP1, 10 nM) of 88.9 ± 6.9 and a relative cell number [15] of 107 ± 9.4. It also gave a relative cell number [16] of 112 ± 20, a relative cell number [17] of 59.6 ± 8.5 and a relative cell number [18] of 96.9 ± 21. The relative cell number [19] was 128 ± 10, the relative cell number [20] was 101 ± 23 and the relative cell number [21] was 69.3 ± 12. The relative cell number [22] was 92 ± 16, the relative cell number [23] was 118 ± 7.5 and the relative cell number [24] was 107 ± 0.88. It also gave a relative cell number [25] of 63.7 ± 16, a relative cell number (sgRNA knockout: sgXBP1, 10 nM) of 87.75 ± 0.47 and a relative cell number (sgRNA knockout: sgXBP1, 100 nM) of 107 ± 1.3. For the same compound, the relative cell number [26] was 98.8 ± 3.2 and the relative cell number [27] was 62.8 ± 9.7.
